Reference: PubChem BioAssay AID1224826 (NIAID, 2016)
Shown is an unselected part of about 17,000 reagents tested. About 1,110 of them (6.6%) were called active. 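Active means lowered or raised reporter signal; replicate intensities are raw and not normalised per plate.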 A number with no mark means an inactive call. Further read-outs or replicates are left out here. Reagent sequences are not shown.

Aim: 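Genes that change LPS-induced Tnf promoter activity in mouse macrophages when knocked down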 (primary screen)
System: RAW264.7 G9 macrophages from mouse bearing reporters for p65 (GFP) and the Tnf promoter (mCherry)
Knock-down reagent: siRNA pool against mouse genes, 100 nM
Time to read-out: 16 h of LPS stimulation, after 2 days of siRNA transfection
Treatment: bacterial lipopolysaccharide (Salmonella minnesota R595), 10 ng/ml
Measured: 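Imaged Tnf reporter mCherry in nuclei, minus background, normalised per plate to the median and expressed as robust z-scores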
Reading the numbers: Tnf reporter robust z-score: higher = stronger Tnf promoter reporter signal after LPS
Call rule: 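Called active when robust z-score is at most -1.3, matching the median of the Tlr4 knock-down control, or over 3; control wells and wells with under 50 cells never active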
Meaning of the calls: active = Tnf reporter clearly lowered or raised; inactive = no clear change in Tnf reporter

target | Tnf reporter robust z-score | fewer than 50 cells in well
Sft2d2 | – | fewer than 50 cells per well; well left out of calls
Dnajc22 | -1.38 (active) | enough cells in well
Aamp | 1.02 | enough cells in well
Abcg5 | -0.17 | enough cells in well
Or4c103 | -0.02 | enough cells in well
Ap5m1 | – | fewer than 50 cells per well; well left out of calls
Selplg | 0.05 | enough cells in well
Gsdmc | -0.54 | enough cells in well
Ss18l1 | 1.06 | enough cells in well
Insl3 | -0.47 | enough cells in well
Pigs | -0.43 | enough cells in well
Amh | 0.86 | enough cells in well
Pabpc4 | – | fewer than 50 cells per well; well left out of calls
Atp5f1c | 0.2 | enough cells in well
Hoxa10 | -0.45 | enough cells in well
Chrm4 | -0.01 | enough cells in well
Jam3 | 2.09 | enough cells in well
Tmem127 | -0.64 | enough cells in well
Zbtb26 | 0.47 | enough cells in well
Nfix | 0.13 | enough cells in well
Dll3 | 2.6 | enough cells in well
H2-Q8 | -0.56 | enough cells in well
Gramd4 | 0.9 | enough cells in well
Arhgap12 | 0.56 | enough cells in well
Or13a20 | 1.04 | enough cells in well
Slc10a4 | -0.73 | enough cells in well
Setd1b | -0.41 | enough cells in well
Shkbp1 | 0.49 | enough cells in well
Nckipsd | -0.34 | enough cells in well
Coasy | 0.5 | enough cells in well
Alox15 | 0.59 | enough cells in well
Rab33a | -0.21 | enough cells in well
Ankrd22 | 0.34 | enough cells in well
Ttll13 | -0.21 | enough cells in well
Dhrs4 | 0.61 | enough cells in well
Ankrd33b | -0.14 | enough cells in well
Dhx40 | -0.12 | enough cells in well
Rpa1 | 2.39 | enough cells in well
Tm9sf3 | – | fewer than 50 cells per well; well left out of calls
Zfp36 | -0.32 | enough cells in well
Vmn1r217 | -0.87 | enough cells in well
Acot8 | -1.17 | enough cells in well
Cr1l | -0.06 | enough cells in well
Vamp3 | -0.08 | enough cells in well
Ccdc43 | -0.23 | enough cells in well
AB124611 | 0.55 | enough cells in well
Wac | 3.5 (active) | enough cells in well
Krtap13-21 | – | fewer than 50 cells per well; well left out of calls
Ptprg | 0.08 | enough cells in well
Tcfl5 | 0.14 | enough cells in well
Ren2 | -1.33 (active) | enough cells in well
Ddah2 | -1.09 | enough cells in well
Rogdi | -0.13 | enough cells in well
Spred2 | 4.23 (active) | enough cells in well
S100a4 | 0.07 | enough cells in well
Cxcr2 | -0.27 | enough cells in well
Vmn1r8 | 3.12 (active) | enough cells in well
Or5t7 | 0.13 | enough cells in well
